The source of these data is PMC7049810.

Chains of the proteins cited; added tags and fusions are not shown. Residues count along the entry.
UniProt P0AFB1, residues 20-294: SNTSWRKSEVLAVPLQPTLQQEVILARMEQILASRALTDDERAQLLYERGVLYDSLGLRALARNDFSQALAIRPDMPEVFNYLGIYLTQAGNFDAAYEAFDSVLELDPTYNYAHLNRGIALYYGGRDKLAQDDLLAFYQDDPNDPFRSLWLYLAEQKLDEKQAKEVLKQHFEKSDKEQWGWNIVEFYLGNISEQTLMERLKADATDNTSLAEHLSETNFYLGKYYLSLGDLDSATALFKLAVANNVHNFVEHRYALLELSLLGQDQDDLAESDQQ
UniProt P24228, residues 21-477: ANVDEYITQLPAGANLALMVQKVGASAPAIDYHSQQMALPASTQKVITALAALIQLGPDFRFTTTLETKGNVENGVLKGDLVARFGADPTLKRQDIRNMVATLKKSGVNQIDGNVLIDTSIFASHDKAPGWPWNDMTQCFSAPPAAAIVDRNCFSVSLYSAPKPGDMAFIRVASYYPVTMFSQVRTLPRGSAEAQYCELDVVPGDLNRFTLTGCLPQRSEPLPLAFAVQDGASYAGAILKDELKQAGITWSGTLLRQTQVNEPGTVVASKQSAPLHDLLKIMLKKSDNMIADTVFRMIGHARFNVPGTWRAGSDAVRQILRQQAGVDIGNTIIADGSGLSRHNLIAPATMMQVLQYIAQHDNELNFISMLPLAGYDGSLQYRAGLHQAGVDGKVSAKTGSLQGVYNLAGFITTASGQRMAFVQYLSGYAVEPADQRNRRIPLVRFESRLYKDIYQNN

No constants are given. Whether binding was seen depends on the method and setting. Some binding calls cover weakened binding; strength is not graded here.

Experiment [1] deals with T1, PBP1A, purified (Escherichia coli) (UniProt P02918).
T1 sequence (chain, NT647 RED-NHS dye on amines (PBP1A was the labelled protein in all MST assays)): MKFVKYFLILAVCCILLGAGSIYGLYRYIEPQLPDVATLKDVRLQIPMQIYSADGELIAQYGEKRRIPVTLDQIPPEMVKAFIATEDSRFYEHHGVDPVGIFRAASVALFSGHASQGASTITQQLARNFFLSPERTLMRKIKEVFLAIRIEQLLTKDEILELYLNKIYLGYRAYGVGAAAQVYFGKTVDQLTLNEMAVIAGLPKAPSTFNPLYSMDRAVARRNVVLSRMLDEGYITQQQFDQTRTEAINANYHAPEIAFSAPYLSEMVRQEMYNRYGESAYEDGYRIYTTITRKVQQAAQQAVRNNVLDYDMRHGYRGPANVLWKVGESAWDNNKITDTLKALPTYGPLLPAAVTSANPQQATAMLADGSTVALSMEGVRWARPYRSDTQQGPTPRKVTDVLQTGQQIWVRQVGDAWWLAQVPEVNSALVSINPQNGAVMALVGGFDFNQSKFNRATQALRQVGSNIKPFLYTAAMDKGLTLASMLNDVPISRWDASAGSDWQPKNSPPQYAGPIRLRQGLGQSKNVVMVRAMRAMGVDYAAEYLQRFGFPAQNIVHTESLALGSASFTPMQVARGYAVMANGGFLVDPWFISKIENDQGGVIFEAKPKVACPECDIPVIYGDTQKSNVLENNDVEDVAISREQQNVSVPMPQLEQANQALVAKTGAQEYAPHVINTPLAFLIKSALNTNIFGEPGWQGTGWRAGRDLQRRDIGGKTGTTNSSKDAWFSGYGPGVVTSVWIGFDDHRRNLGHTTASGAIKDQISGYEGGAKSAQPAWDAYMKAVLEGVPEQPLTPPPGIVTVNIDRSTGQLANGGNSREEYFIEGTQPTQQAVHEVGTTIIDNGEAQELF
The experiment is described as follows: MST; titration: NT647-labelled protein against a two-fold serial dilution (16 steps) of unlabelled ligand; 25 mM HEPES/NaOH, 150 mM NaCl, 0.05% Triton X-100, pH 7.5; Monolith NT.115; apparent constants; for NlpI with itself: dimer to monomers; both purified.

The target of experiment [2] is T2, MepS (Escherichia coli) (UniProt P0AFV4).
T2 sequence (chain, where used as fl-MepS in MST, NT647 RED-NHS dye on amines): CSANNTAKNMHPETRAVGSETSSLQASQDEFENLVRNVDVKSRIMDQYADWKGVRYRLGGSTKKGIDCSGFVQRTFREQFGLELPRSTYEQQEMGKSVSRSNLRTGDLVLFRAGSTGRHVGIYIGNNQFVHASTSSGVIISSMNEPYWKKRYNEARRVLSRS
Briefly: MST + pull-down; endopeptidases tested against each other, 'a combination of MST and Ni2+-NTA pull-down assays'; all combinations of MepM, MepS, PBP4, PBP7; both purified.

Experiment [3] concerns the target T2, MepS (Escherichia coli). The experiment is described as follows: MST; fixed ligand concentration assay: labelled MepS, LpoA or PBP1A with fixed unlabelled NlpI, PBP4, PBP7 or pre-formed complexes (NlpI 3 μM with 30 μM PBP4 or PBP7 for fl-MepS and fl-LpoA; PBP4 0.5 μM with NlpI 1 μM for fl-PBP1A); FNorm, or raw fluorescence for LpoA; both purified.
The target in experiment [4] is T1, PBP1A, purified (Escherichia coli). The experiment is described as above.

“NlpI, soluble version lacking its membrane anchor (from UniProt P0AFB1 20-294)”: the binding result in experiment [1] is reported as “no binding (tested: 50 μM)”.
Consider “PBP4, native, purified (from UniProt P24228 21-477) (enzyme)”, for which the binding result in the experiment with MepS (Escherichia coli) [2] is “no binding”; with MepS (Escherichia coli) [3] it was “no binding (tested: 30 μM)”; in experiment [4] it was “binds”.
For the substance “pre-formed NlpI-PBP4 complex (from UniProt P0AFB1 20-294; P24228 21-477)”, the binding entry in experiment [4] was “binds”.
